Assay [1] concerns the target β6 subunit of the integrin complex (human (endogenous in SV40 immortalized human chondrocytes)) (UniProt P18564). Briefly: co-IP; lysates of SV40 cells and their secreted ECM after 48-h shear stress (6.58 dynes/cm^2); IP with anti-ITGB6 overnight at 4 °C, Protein A magnetic beads, immunoblot for talin. On the technique in general: In western blotting, separated proteins are transferred to a membrane and probed.

The chains behind the UniProt entries cited, without tags or fusion partners. Residues count along the entry.
UniProt P18564, residues 22-788: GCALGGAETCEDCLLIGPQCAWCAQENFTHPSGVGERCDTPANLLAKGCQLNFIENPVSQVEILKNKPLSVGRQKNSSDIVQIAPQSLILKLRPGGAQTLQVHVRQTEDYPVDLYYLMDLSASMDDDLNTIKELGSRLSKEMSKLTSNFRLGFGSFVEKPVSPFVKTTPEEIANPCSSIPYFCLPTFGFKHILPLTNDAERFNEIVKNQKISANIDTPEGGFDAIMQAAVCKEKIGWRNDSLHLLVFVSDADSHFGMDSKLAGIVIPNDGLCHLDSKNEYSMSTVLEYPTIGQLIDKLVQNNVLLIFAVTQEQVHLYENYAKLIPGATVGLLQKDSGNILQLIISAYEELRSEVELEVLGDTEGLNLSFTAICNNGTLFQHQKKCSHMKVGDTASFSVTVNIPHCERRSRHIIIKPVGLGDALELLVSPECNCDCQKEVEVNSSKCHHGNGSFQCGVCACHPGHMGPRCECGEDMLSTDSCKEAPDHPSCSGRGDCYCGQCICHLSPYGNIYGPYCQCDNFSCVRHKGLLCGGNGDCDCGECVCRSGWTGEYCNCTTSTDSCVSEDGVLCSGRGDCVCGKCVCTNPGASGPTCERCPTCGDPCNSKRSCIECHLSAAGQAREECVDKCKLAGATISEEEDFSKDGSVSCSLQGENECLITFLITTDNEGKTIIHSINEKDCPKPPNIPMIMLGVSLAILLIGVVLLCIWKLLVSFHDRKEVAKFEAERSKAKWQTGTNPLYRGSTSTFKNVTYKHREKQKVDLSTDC
UniProt Q9Y490: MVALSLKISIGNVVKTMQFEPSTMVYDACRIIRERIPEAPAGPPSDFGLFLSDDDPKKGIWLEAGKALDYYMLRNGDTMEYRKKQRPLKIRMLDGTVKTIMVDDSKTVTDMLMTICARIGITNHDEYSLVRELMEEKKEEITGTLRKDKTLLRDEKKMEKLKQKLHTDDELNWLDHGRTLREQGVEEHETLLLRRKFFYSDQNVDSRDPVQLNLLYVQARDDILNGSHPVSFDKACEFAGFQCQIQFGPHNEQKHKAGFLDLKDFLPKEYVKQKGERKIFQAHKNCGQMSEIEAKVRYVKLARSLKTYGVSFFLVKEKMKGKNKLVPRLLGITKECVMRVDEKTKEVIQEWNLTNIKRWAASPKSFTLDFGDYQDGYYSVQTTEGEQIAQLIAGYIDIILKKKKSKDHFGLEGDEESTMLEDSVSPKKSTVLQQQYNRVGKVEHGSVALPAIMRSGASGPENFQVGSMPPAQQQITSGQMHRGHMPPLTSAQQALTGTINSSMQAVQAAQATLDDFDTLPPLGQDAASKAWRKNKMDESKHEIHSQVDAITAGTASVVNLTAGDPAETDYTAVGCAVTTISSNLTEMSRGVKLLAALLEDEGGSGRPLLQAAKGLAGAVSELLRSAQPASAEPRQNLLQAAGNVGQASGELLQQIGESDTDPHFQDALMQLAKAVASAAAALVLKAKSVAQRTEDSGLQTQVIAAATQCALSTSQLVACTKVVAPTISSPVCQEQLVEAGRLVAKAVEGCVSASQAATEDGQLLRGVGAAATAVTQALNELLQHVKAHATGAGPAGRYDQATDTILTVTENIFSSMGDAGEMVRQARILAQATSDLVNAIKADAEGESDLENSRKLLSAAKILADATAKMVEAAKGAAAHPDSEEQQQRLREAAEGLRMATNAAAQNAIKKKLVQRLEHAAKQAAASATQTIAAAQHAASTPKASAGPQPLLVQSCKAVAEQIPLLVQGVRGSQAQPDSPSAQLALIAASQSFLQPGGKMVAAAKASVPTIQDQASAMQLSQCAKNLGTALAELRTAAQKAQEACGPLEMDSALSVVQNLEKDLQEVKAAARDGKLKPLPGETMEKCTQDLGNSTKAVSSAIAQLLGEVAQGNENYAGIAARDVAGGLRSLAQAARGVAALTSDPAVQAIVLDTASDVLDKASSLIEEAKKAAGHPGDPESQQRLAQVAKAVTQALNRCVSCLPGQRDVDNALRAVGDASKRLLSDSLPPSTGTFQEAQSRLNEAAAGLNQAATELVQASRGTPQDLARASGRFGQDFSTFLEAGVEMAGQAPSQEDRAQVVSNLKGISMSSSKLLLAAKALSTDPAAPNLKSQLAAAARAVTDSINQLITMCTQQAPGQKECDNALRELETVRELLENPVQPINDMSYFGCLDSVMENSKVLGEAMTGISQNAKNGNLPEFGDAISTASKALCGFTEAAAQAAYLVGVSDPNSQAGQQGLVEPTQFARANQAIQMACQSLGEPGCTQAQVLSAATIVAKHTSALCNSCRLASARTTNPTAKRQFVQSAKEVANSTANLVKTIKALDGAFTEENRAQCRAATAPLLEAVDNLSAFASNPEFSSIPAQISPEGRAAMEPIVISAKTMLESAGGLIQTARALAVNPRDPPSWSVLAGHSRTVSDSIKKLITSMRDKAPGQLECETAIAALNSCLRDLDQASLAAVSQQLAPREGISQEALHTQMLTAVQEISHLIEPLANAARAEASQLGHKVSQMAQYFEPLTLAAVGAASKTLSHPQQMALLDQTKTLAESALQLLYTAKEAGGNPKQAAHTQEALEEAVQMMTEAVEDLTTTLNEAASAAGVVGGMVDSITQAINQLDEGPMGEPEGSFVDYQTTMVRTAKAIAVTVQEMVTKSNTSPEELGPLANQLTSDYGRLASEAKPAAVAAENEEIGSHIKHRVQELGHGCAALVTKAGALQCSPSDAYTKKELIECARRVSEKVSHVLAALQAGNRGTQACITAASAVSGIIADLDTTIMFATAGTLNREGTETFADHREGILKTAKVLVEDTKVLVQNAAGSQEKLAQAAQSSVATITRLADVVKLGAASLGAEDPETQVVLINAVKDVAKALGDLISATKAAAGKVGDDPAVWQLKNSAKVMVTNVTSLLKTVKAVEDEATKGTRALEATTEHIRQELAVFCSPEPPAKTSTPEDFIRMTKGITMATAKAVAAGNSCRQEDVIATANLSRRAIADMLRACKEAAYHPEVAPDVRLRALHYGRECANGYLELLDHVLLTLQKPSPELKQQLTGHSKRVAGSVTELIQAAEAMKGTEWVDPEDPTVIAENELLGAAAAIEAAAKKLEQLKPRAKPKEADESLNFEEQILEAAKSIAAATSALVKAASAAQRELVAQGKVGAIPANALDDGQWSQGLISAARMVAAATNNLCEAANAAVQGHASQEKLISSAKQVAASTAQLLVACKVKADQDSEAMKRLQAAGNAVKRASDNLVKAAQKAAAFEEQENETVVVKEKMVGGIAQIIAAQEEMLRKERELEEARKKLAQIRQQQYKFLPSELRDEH

For assay [2] the target is unchanged. Briefly: co-IP; lysates of SV40 cells and their secreted ECM, cells cultured in the free well (no shear stress); IP with anti-ITGB6 overnight at 4 °C, Protein A magnetic beads, immunoblot for talin.

No constants are given. Whether binding was seen depends on the method and setting. Binding seen in cells or lysates may run through a third protein. Some entries that bind do so weakly or less than the wild type.

For the substance talin (from UniProt Q9Y490 1-2541), the binding entry in assay [1] is listed as “binds”; in assay [2], “binds weakly”.

The record behind these values is article PMC7969741.
